From the supplement of paper PMC12067093, “Discovery and optimisation of a covalent ligand for TRIM25 and its application to targeted protein ubiquitination” (Chemical Science, 2025)
Some of the results follow.

Chains of the proteins cited; added tags and fusions are not shown. Lines headed by an entry give the natural chain unless they say otherwise; changes in a name come on top.
UniProt Q8WWM7: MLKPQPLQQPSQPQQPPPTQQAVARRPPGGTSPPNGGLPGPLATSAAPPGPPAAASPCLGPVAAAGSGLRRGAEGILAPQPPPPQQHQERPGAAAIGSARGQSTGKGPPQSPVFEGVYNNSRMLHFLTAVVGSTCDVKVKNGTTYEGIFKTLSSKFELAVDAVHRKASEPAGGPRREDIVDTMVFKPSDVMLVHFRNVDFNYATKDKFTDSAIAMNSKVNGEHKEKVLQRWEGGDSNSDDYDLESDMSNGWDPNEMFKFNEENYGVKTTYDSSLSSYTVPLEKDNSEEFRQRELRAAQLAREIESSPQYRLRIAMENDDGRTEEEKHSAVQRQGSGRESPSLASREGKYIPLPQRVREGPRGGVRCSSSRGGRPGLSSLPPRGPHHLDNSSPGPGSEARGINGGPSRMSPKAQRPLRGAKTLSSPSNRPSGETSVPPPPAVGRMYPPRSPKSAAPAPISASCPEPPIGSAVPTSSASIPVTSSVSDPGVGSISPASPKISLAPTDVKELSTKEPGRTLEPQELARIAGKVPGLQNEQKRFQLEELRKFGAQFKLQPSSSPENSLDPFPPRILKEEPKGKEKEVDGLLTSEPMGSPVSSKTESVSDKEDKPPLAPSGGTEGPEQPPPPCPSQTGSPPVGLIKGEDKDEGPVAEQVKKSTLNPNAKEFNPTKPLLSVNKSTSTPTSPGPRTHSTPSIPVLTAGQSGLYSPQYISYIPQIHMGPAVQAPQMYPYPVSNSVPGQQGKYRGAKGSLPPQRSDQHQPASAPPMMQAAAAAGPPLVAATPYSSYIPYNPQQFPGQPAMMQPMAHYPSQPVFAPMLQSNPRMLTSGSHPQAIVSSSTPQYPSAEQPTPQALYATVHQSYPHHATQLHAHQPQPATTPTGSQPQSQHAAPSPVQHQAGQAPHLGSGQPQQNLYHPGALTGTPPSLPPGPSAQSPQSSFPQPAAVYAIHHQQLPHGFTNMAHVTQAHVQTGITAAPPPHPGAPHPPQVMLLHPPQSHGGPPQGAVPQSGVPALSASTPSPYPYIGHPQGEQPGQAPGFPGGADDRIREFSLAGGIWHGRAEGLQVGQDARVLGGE
UniProt Q9NRL2: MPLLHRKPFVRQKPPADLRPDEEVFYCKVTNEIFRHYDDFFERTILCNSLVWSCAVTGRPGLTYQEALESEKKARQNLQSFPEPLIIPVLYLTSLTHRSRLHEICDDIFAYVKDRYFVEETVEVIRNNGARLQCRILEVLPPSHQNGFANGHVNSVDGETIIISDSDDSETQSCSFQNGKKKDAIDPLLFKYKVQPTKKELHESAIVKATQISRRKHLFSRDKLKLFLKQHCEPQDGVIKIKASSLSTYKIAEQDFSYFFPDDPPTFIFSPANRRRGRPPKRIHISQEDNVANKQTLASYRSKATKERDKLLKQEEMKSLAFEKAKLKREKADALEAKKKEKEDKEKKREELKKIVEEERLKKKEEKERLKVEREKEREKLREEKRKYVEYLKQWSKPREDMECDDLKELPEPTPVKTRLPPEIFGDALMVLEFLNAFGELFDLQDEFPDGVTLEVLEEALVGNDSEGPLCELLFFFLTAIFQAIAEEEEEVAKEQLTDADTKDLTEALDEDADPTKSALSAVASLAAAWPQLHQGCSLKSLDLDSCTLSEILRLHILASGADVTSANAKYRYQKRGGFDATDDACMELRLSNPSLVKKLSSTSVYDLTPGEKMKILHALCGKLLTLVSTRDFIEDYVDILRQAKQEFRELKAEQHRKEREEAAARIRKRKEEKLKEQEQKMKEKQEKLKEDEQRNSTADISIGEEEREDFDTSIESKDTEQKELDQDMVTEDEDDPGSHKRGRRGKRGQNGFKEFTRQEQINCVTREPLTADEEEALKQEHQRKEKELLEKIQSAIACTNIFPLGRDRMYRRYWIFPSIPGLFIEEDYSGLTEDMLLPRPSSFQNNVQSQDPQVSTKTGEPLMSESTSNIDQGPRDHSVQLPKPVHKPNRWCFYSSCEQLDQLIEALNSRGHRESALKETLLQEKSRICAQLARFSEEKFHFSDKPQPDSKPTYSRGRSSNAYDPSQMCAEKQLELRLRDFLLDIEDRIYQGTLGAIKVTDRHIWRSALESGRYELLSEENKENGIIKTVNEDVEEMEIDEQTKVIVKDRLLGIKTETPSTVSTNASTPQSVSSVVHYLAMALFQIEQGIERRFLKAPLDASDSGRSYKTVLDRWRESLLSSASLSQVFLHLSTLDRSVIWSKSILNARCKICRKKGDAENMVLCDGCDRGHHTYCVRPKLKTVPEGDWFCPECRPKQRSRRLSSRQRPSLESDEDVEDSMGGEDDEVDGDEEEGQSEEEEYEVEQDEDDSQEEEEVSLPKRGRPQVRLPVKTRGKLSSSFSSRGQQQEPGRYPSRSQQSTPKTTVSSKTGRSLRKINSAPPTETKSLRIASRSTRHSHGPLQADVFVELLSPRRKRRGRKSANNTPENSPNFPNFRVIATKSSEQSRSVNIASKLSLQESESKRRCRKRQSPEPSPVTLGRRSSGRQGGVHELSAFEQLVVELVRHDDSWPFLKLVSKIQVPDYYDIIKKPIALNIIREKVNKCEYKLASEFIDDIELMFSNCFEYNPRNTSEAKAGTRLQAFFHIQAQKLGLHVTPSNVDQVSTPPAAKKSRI
UniProt Q9H6S1, whole entry: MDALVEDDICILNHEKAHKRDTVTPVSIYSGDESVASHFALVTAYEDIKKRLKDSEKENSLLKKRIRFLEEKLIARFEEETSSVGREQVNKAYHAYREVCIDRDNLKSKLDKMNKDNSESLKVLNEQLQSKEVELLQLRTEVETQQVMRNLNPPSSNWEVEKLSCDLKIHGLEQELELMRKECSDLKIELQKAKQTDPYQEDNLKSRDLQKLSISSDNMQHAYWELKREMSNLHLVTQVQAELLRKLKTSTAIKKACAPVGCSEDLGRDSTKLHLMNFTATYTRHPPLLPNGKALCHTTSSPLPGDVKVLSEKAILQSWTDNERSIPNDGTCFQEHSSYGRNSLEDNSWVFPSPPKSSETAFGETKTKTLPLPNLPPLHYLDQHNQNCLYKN
UniProt Q8NFC6: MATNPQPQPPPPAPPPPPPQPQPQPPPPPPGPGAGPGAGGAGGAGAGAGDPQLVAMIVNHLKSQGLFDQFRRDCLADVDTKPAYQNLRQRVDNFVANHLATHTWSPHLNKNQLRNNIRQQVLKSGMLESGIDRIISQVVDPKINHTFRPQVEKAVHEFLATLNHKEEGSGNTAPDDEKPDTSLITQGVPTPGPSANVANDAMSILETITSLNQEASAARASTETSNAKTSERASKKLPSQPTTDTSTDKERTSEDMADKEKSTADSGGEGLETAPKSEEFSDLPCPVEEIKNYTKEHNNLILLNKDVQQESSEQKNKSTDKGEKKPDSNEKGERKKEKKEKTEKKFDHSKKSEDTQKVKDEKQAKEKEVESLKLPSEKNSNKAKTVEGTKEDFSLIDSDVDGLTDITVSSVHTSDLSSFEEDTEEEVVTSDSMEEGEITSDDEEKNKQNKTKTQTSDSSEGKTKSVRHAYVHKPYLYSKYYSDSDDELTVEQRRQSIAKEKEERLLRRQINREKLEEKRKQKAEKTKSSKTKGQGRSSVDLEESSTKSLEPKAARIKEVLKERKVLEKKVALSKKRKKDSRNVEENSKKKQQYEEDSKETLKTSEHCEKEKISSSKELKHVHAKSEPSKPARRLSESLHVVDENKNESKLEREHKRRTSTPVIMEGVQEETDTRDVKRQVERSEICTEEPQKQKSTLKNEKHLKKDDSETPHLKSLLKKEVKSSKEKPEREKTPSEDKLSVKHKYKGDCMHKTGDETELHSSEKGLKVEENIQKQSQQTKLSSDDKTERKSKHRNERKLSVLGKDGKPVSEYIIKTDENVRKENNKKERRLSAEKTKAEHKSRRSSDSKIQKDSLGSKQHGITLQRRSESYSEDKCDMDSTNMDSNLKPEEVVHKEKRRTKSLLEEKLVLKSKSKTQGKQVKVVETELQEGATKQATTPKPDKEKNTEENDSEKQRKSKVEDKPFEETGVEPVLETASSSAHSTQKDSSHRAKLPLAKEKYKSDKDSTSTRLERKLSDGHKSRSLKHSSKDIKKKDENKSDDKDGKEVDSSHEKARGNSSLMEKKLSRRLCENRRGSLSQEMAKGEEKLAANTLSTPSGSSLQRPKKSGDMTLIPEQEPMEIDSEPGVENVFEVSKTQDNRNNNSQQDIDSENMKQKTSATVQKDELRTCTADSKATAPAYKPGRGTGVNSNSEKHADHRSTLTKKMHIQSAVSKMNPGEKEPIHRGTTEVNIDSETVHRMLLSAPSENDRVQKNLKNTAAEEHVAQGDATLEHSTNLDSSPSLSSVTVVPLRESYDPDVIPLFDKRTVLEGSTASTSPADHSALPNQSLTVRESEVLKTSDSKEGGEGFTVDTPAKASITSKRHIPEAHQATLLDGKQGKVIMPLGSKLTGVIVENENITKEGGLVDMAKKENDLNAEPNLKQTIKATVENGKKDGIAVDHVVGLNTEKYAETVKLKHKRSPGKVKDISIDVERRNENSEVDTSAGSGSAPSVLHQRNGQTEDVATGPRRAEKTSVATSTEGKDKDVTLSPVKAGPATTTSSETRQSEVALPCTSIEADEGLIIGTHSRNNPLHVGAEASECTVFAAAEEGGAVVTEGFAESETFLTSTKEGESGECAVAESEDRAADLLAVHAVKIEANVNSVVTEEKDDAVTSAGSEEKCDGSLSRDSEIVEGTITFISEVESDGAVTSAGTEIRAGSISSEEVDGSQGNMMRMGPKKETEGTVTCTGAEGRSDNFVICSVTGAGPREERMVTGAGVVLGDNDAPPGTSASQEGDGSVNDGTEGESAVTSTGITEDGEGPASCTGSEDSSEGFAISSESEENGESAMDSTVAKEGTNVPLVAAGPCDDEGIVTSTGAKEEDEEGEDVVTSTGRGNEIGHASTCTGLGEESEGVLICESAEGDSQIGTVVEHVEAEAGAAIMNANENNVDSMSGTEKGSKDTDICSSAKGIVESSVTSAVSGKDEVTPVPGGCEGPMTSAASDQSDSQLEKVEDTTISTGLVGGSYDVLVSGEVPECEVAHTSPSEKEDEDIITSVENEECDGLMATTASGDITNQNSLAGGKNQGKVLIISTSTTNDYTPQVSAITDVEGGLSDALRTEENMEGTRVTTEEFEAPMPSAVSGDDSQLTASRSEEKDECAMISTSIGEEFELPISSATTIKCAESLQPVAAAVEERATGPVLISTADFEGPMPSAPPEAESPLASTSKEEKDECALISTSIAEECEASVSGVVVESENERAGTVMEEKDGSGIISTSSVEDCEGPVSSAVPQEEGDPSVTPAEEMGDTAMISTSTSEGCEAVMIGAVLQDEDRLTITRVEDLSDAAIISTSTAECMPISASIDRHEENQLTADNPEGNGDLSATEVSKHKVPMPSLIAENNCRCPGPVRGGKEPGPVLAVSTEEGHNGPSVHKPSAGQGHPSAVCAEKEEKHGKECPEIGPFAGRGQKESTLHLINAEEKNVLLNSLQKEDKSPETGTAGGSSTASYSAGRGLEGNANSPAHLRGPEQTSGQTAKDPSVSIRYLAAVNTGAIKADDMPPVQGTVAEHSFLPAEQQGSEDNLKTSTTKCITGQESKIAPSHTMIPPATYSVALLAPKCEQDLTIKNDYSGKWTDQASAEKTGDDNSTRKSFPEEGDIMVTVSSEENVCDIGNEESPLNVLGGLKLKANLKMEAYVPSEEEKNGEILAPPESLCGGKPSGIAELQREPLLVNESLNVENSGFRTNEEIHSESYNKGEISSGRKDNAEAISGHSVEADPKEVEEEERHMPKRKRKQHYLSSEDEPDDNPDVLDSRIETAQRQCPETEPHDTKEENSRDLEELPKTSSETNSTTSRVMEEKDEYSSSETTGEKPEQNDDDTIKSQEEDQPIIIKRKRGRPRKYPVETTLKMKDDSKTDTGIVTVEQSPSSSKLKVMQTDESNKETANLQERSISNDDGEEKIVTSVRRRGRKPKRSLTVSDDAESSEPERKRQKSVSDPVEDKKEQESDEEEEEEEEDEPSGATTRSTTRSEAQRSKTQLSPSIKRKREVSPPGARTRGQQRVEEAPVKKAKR
UniProt O43505: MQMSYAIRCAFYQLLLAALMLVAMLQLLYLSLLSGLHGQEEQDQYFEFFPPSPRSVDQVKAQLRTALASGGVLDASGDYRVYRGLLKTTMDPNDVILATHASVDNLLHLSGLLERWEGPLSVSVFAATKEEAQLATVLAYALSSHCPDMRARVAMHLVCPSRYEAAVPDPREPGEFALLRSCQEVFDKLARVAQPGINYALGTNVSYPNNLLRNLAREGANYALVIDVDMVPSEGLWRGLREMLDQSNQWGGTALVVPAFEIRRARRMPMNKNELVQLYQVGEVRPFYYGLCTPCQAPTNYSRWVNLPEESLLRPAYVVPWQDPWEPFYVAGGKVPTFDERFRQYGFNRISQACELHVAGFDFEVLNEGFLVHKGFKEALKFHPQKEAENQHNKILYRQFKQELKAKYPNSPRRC

Compound: Cc1cc(ccc1-c1ccccc1)C(=O)N1CCCN(CC1)C(=O)CCl [compound 10]
Experiment: probe-labelled cysteine peptide fold change vs DMSO (competition) (log2 fold change); higher = less target engagement (more negative = stronger competition)
Details: THP-1, incubation time: 4 h
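Note: competitive profiling in live THP-1 cells: cysteine peptides tagged with an iodoacetamide desthiobiotin (IA-DTB) probe, intensity after compound treatment relative to DMSO-treated cells.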

Target | probe-labelled cysteine peptide fold change (10 µM) | probe-labelled cysteine peptide fold change (50 µM)
ATXN2L_Q8WWM7_135_MLHFLTAVVGSTCDVK (UniProt Q8WWM7) | -0.0379 | 0.1
BAZ1A_Q9NRL2_621_ILHALCGK (UniProt Q9NRL2) | 0.0294 | 0.339
BABAM1_Q9NWV8_222_TILVYSRPPCQPQFSLTEPMK (UniProt Q9NWV8) | 0.0416 | -0.44
BAZ2A_Q9UIF9_1697_KGDNDEFLLLCDGCDR (UniProt Q9UIF9) | 0.0661 | -0.35
BAZ1A_Q9NRL2_799_IQSAIACTNIFPLGR (UniProt Q9NRL2) | 0.087 | 0.166
AZI2_Q9H6S1_10_MDALVEDDICILNHEK (UniProt Q9H6S1) | -0.339 | -0.235
AZU1_P20160_222_RGGICNGDGGTPLVCEGLAHGVASFSLGPCGR (UniProt P20160) | -0.133 | -0.157
AZU1_P20160_207+222_RGGICNGDGGTPLVCEGLAHGVASFSLGPCGR (UniProt P20160) | 0.523 | 0.564
BOD1L1_Q8NFC6_1947_DTDICSSAK (UniProt Q8NFC6) | -0.306 | -0.123
B4GAT1_O43505_146_EEAQLATVLAYALSSHCPDMR (UniProt O43505+B4GAT1) | 0.0128 | 0.305
BLM_P54132_380_QISLQQQLIHVMEHICK (UniProt P54132) | 0.201 | 0.13
BOD1L1_Q8NFC6_1554_QSEVALPCTSIEADEGLIIGTHSR (UniProt Q8NFC6) | -0.156 | -0.0106
BIRC6_Q9NR09_1293_GCDLLQEVSVTIR (UniProt Q9NR09) | 0.191 | 0.51
BCAT2_O15382_135_LCLPSFDK (UniProt O15382) | 0.166 | 0.907

Looked up one by one from above (2):
Target | probe-labelled cysteine peptide fold change (10 µM) | probe-labelled cysteine peptide fold change (50 µM)
BAZ2A_Q9UIF9_1697_KGDNDEFLLLCDGCDR (UniProt Q9UIF9) | 0.0661 | -0.35
AZI2_Q9H6S1_10_MDALVEDDICILNHEK (UniProt Q9H6S1) | -0.339 | -0.235
